Series [1] in a line: general procedure: Boc solid-phase peptide synthesis; MBHA; BOP/triethylamine (on-resin cyclization). The settings on record: whole synthesis, bis-trifluoroacetate salt.
A short description of series [2]: general procedure: Boc solid-phase peptide synthesis; MBHA resin (1% cross-linked divinyl benzene-styrene, 200-400 mesh, 0.27 meq/g); BOP/triethylamine (on-resin cyclization). The settings on record: whole synthesis, bis-trifluoroacetate salt; for crude yield / isolated yield: scale of the general procedure 1 g of MBHA resin.

In the case of “Cyclo^10,14 [Asp^10,Leu^13,Lys^14 ]motilin-(1-14)-peptide Amide (Porcine) Bis-Trifluoroacetate Salt”, the crude mass in series [1] is recorded as 400 mg. In addition, in series [2], the isolated mass worked out at 86 mg, the crude yield is listed as 87% and the isolated yield is listed as 16%.

As to “Cyclo^10,14 [N,N,N-TrimethylPhe^1,Glu^10, Ala^11,Leu^13, Lys^14 ]motilin-(1-14)-peptide Amide(Porcine) Bis-Trifluoroacetate Salt”, in series [2], the crude mass was 400 mg, the isolated mass is given as 56 mgs, the crude yield was determined as 87% and the isolated yield was 12%.

In the case of “Cyclo^10,14 [N-MethylPhe^1,Glu^10, Ala^11,Leu^13, Lys^14 ]motilin-(1-14)-peptide Amide (Porcine) Bis-Trifluoroacetate Salt”, in series [2], the crude mass is 200 mg, the isolated mass is given as 40 mg, the crude yield was 45% and the isolated yield is on record as 10%.

The record behind these values is US5734012A (Ohmeda Pharmaceutical Products Division Inc., priority 1996, dated 1998).
